Experimental findings from PMC5357909 are described below.

A weaker result is weaker than the reference pair of the same experiment.

The target of this data set is EhRNaseIII194 (Entamoeba histolytica) (UniProt C4LU64). Kind of data set: EMSA. To be noted: 5 mM Mg2+, low affinity (shift in lane 8, 1e-3 M); EMSA (1x): 30 mM Tris-HCl pH 7.5, 30 mM NaCl, 5 mM MgCl2, 1 mM DTT, 0.1 mM EDTA, 5% glycerol; room temperature 10 min then ice 20 min; 6% native PAGE; recombinant protein; protein details: His-Sumo removed by Ulp1.

For “GGGAGAAACGCGGCCUCUUCUUAUUUAUGGCGACAUGUUGUGCCUCUCCC / GGGAGAGGCACAACAUGUCGCCAUAAAUAAGAAGAGGCCGCGUUUCUCCC [RNA50]”, the binding result is reported as “binds more weakly”.
